# The supplement of paper PMC8728848
# This is one part of the list.
# B1: CALR truncated at D342 (Homo sapiens) (protein)
# chain: EPAVYFKEQFLDGDGWTSRWIESKHKSDFGKFVLSSGKFYGDEEKDKGLQTSQDARFYALSASFEPFSNKGQTLVVQFTVKHEQNIDCGGGYVKLFPNSLDQTDMHGDSEYNIMFGPDICGPGTKKVHVIFNYKGKNVLINKDIRCKDDEFTHLYTLIVRPDNTYEVKIDNSQVESGSLEDDWDFLPPKKIKDPDASKPEDWDERAKIDDPTDSKPEDWDKPEHIPDPDAKKPEDWDEEMDGEWEPPVIQNPEYKGEWKPRQIDNPDYKGTWIHPEIDNPEYSPDPSIYAYDNFGVLGLDLWQVKSGTIFDNFLITNDEAYAEEFGNETWGVTKAAEKQMKD
# How the values were obtained:
# Experiment in all cases: glycan array binding signal (z-score within array); higher = stronger binding
# Conditions in all cases: glycan notation: IUPAC condensed, linker removed
# Gal6S(b1-3)GlcNAc6S = target: Gal6S(b1-3)GlcNAc6S
# Summary of the method: (§1)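 Glycan array data were curated from 3228 arrays in the Consortium for Functional Glycomics database and kept only where the protein sequence was available. Glycan names were converted to IUPAC-condensed notation, and columns mapping to the same glycan were averaged. The binding signal is a within-array Z-score, averaged across arrays of the same protein sequence at different concentrations or buffers and across linkers. Negative Z-scores can be read as non-binding.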
# Gal6S(b1-4)Glc = target: Gal6S(b1-4)Glc
# Summary of the method: as §1
# Gal6S(b1-4)Glc6S = target: Gal6S(b1-4)Glc6S
# Summary of the method: as §1
# Gal6S(b1-4)GlcNAc = target: Gal6S(b1-4)GlcNAc
# Summary of the method: as §1
# Gal6S(b1-4)GlcNAc6S = target: Gal6S(b1-4)GlcNAc6S
# Summary of the method: as §1
# GalNAc(a1-3)Gal = target: GalNAc(a1-3)Gal
# Summary of the method: as §1
# GalNAc(a1-3)GalNAc = target: GalNAc(a1-3)GalNAc
# Summary of the method: as §1
# [1] = target: GalNAc(a1-3)GalNAc(b1-3)Gal(a1-4)Gal(b1-4)Glc
# Summary of the method: as §1
# [2] = target: GalNAc(a1-3)GalNAc(b1-3)Gal(a1-4)Gal(b1-4)GlcNAc
# Summary of the method: as §1
# GalNAc(b1-3)Gal = target: GalNAc(b1-3)Gal
# Summary of the method: as §1
# [3] = target: GalNAc(b1-3)Gal(a1-4)Gal(b1-4)GlcNAc
# Summary of the method: as §1
# [4] = target: GalNAc(b1-3)Gal(a1-4)Gal(b1-4)GlcNAc(b1-3)Gal(b1-4)Glc
# Summary of the method: as §1
# [5] = target: GalNAc(b1-3)Gal(a1-6)Gal(b1-4)Glc
# Summary of the method: as §1
# GalNAc(b1-3)GalNAc = target: GalNAc(b1-3)GalNAc
# Summary of the method: as §1
# GalNAc(b1-4)Gal(b1-4)Glc = target: GalNAc(b1-4)Gal(b1-4)Glc
# Summary of the method: as §1
# GalNAc(b1-4)GlcNAc = target: GalNAc(b1-4)GlcNAc
# Summary of the method: as §1
# [6] = target: GalNAc(b1-4)GlcNAc(b1-2)Man(a1-3)[GalNAc(b1-4)GlcNAc(b1-2)Man(a1-6)]Man(b1-4)GlcNAc(b1-4)GlcNAc
# Summary of the method: as §1
# GalNAc(b1-4)GlcNAc6S = target: GalNAc(b1-4)GlcNAc6S
# Summary of the method: as §1
# GalNAc(b1-6)GalNAc = target: GalNAc(b1-6)GalNAc
# Summary of the method: as §1
# GalNAc3S(b1-4)GlcNAc = target: GalNAc3S(b1-4)GlcNAc
# Summary of the method: as §1
# GalNAc3S(b1-4)GlcNAc3S = target: GalNAc3S(b1-4)GlcNAc3S
# Summary of the method: as §1
# GalNAc4S6S(b1-4)GlcNAc = target: GalNAc4S6S(b1-4)GlcNAc
# Summary of the method: as §1
# GalNAc6S(b1-4)GlcNAc = target: GalNAc6S(b1-4)GlcNAc
# Summary of the method: as §1
# Glc(a1-4)Glc = target: Glc(a1-4)Glc
# Summary of the method: as §1
# [7] = target: Glc(a1-4)Glc(a1-4)Glc(a1-4)Glc
# Summary of the method: as §1
# Glc(a1-6)Glc(a1-6)Glc = target: Glc(a1-6)Glc(a1-6)Glc
# Summary of the method: as §1
# [8] = target: Glc(a1-6)Glc(a1-6)Glc(a1-6)Glc
# Summary of the method: as §1
# Glc(b1-4)Glc = target: Glc(b1-4)Glc
# Summary of the method: as §1
# Glc(b1-6)Glc = target: Glc(b1-6)Glc
# Summary of the method: as §1
# GlcA(b1-3)Gal = target: GlcA(b1-3)Gal
# Summary of the method: as §1
# GlcA(b1-3)GlcNAc = target: GlcA(b1-3)GlcNAc
# Summary of the method: as §1
# GlcA(b1-6)Gal = target: GlcA(b1-6)Gal
# Summary of the method: as §1
# [9] = target: GlcNAc(a1-3)Gal(b1-4)GlcNAc
# Summary of the method: as §1
# [10] = target: GlcNAc(a1-4)Gal(b1-3)GlcNAc
# Summary of the method: as §1
# [11] = target: GlcNAc(a1-4)Gal(b1-4)GalNAc
# Summary of the method: as §1
# [12] = target: GlcNAc(a1-4)Gal(b1-4)GlcNAc
# Summary of the method: as §1
# [13] = target: GlcNAc(a1-4)Gal(b1-4)GlcNAc(b1-3)Gal(b1-4)Glc
# Summary of the method: as §1
# [14] = target: GlcNAc(a1-4)Gal(b1-4)GlcNAc(b1-3)Gal(b1-4)GlcNAc
# Summary of the method: as §1
binder,measurement,setting,value
B1,glycan array binding signal (z-score),Gal6S(b1-3)GlcNAc6S,0.101
same,glycan array binding signal (z-score),Gal6S(b1-4)Glc,-1.17
same,glycan array binding signal (z-score),Gal6S(b1-4)Glc6S,-0.868
same,glycan array binding signal (z-score),Gal6S(b1-4)GlcNAc,-1.33
same,glycan array binding signal (z-score),Gal6S(b1-4)GlcNAc6S,-1.01
same,glycan array binding signal (z-score),GalNAc(a1-3)Gal,0.292
same,glycan array binding signal (z-score),GalNAc(a1-3)GalNAc,-0.195
same,glycan array binding signal (z-score),[1],0.447
same,glycan array binding signal (z-score),[2],0.128
same,glycan array binding signal (z-score),GalNAc(b1-3)Gal,0.701
same,glycan array binding signal (z-score),[3],-1.14
same,glycan array binding signal (z-score),[4],-1.18
same,glycan array binding signal (z-score),[5],-0.627
same,glycan array binding signal (z-score),GalNAc(b1-3)GalNAc,-0.692
same,glycan array binding signal (z-score),GalNAc(b1-4)Gal(b1-4)Glc,-0.061
same,glycan array binding signal (z-score),GalNAc(b1-4)GlcNAc,1.29
same,glycan array binding signal (z-score),[6],0.19
same,glycan array binding signal (z-score),GalNAc(b1-4)GlcNAc6S,-0.361
same,glycan array binding signal (z-score),GalNAc(b1-6)GalNAc,-0.211
same,glycan array binding signal (z-score),GalNAc3S(b1-4)GlcNAc,1.07
same,glycan array binding signal (z-score),GalNAc3S(b1-4)GlcNAc3S,-0.7
same,glycan array binding signal (z-score),GalNAc4S6S(b1-4)GlcNAc,0.282
same,glycan array binding signal (z-score),GalNAc6S(b1-4)GlcNAc,-0.249
same,glycan array binding signal (z-score),Glc(a1-4)Glc,-0.124
same,glycan array binding signal (z-score),[7],0.784
same,glycan array binding signal (z-score),Glc(a1-6)Glc(a1-6)Glc,0.71
same,glycan array binding signal (z-score),[8],0.722
same,glycan array binding signal (z-score),Glc(b1-4)Glc,0.125
same,glycan array binding signal (z-score),Glc(b1-6)Glc,0.447
same,glycan array binding signal (z-score),GlcA(b1-3)Gal,-1.07
same,glycan array binding signal (z-score),GlcA(b1-3)GlcNAc,-0.61
same,glycan array binding signal (z-score),GlcA(b1-6)Gal,1.96
same,glycan array binding signal (z-score),[9],-0.73
same,glycan array binding signal (z-score),[10],0.461
same,glycan array binding signal (z-score),[11],-0.521
same,glycan array binding signal (z-score),[12],-1.27
same,glycan array binding signal (z-score),[13],0.573
same,glycan array binding signal (z-score),[14],-0.828

# Eleven entries from above in another layout:
binder	measurement	setting	value
B1	glycan array binding signal (z-score)	[5]	-0.627
same	glycan array binding signal (z-score)	GalNAc(b1-3)GalNAc	-0.692
same	glycan array binding signal (z-score)	GalNAc(b1-4)Gal(b1-4)Glc	-0.061
same	glycan array binding signal (z-score)	GalNAc(b1-4)GlcNAc	1.29
same	glycan array binding signal (z-score)	[6]	0.19
same	glycan array binding signal (z-score)	GalNAc(b1-4)GlcNAc6S	-0.361
same	glycan array binding signal (z-score)	GalNAc(b1-6)GalNAc	-0.211
same	glycan array binding signal (z-score)	GalNAc3S(b1-4)GlcNAc	1.07
same	glycan array binding signal (z-score)	GalNAc3S(b1-4)GlcNAc3S	-0.7
same	glycan array binding signal (z-score)	GalNAc4S6S(b1-4)GlcNAc	0.282
same	glycan array binding signal (z-score)	GalNAc6S(b1-4)GlcNAc	-0.249
